# Test results as given in patent publication US6248716A, “Peptide, a method for its preparation and a pharmaceutical composition containing the peptide” (priority 1999, dated 2001).
# Part of at least one peptide drawing is inferred or uncertain, most often the ends. Non-standard residues stand in square brackets, D forms with d. Residues, ends and D or L forms follow the SMILES beside them.
# Assays:
# [1] = Weight gain and skin area in minks; type: in vivo; settings: for weight gain over control: Group 4, 20 μg per kg body weight; for Weight increase, kg, female / Weight increase, kg, male: one month; for Weight gain, %, female / Weight gain, %, male: control = 100
# [2] = Effect on growth of trout; type: in vivo; settings: immersion in solution 1.0 mg/l
# [3] = Mental-and-exercise stress with hypothermia or hyperthermia (swimming); type: in vivo, mice
# skin and hair integument = assay: Morphological changes in skin and hair integument; type: in vivo, NMRI mice
# [4] = Tail flick analgesic test; type: in vivo; settings: rats, intranasally, 0.005 mg per kg body weight
# [5] = minks, group 2, 10 μg/kg each day with feed
# [6] = minks, group 2, 10 μg/kg each day
# [7] = minks, group 3, 10 μg/kg ten days on, ten days off
# [8] = minks, group 4, 20 μg/kg ten days on, ten days off
compound,measurement,setting,value
C[C@@H](NC(=O)[C@H](Cc1ccc(O)cc1)NC(=O)[C@@H](N)CCCNC(=N)N)C(=O)N[C@@H](Cc1ccccc1)C(=O)NCC(=O)O [H-Arg-Tyr-D-Ala-Phe-Gly-OH] (H-RY[dA]FG-OH),weight gain over control,[1]; female minks,6%
same,weight gain over control,[1]; male minks,26%
same,"Weight increase, kg, female",[1]; [5],0.375 kg
same,"Weight increase, kg, male",[1]; [5],0.728 kg
same,"Weight gain, %, female",[1]; [6],90%
same,"Weight gain, %, male",[1]; [6],119%
same,"Weight increase, kg, female",[1]; [7],0.381 kg
same,"Weight increase, kg, male",[1]; [7],0.726 kg
same,"Weight gain, %, female",[1]; [7],91%
same,"Weight gain, %, male",[1]; [7],119%
same,"Weight increase, kg, female",[1]; [8],0.443 kg
same,"Weight increase, kg, male",[1]; [8],0.771 kg
same,"Weight gain, %, female",[1]; [8],106%
same,"Weight gain, %, male",[1]; [8],126%
same,"area of skin (pelts), larger than control, on the average","[1]; minks, second and third test groups (Groups 3 and 4)",7.9%
same,"weight increase, higher compared with control group",[2],36.4%
same,average weight of trout hutchlings at end of study,[2]; initial weight 0.5 g,3.86 g
same,combined stress tolerated better,"[3]; under hyperthermia, 24 hours after administration, 100 μg/kg body weight",36.9%
same,increase of tolerance to stress factors,[3]; under hypothermia,more than 20%
same,"number of hair follicles per 1 mm^2, more than in the control group",skin and hair integument; 1.0 μg per kg body weight with drinking water,22%
same,"Length increase (hair, withers)",skin and hair integument; 1 μg/kg,4.4 mm
same,"Length increase, % (relative to control)",skin and hair integument; 1 μg/kg,4.5%
same,"number of hair follicles per 1 mm^2, more than in the control group",skin and hair integument; 10.0 μg per kg body weight with drinking water,19%
same,"Length increase (hair, withers)",skin and hair integument; 10 μg/kg,4.9 mm
same,"Length increase, % (relative to control)",skin and hair integument; 10 μg/kg,16.7%
same,"number of hair follicles per 1 mm^2, more than in the control group",skin and hair integument; 100.00 μg per kg body weight with drinking water,14%
same,"Length increase (hair, withers)",skin and hair integument; 100 μg/kg,4.5 mm
same,"Length increase, % (relative to control)",skin and hair integument; 100 μg/kg,17.9%
same,skin section examination,"skin and hair integument; group 2, 1 μg per kg",the epithelium growth zone was more active
same,skin section examination,"skin and hair integument; group 3, 10 μg per kg",areas of epidermal thickening
same,skin section examination,"skin and hair integument; group 4, 100 μg per Kg",epidermal layer growth with a considerable hyperkeratinization
same,analgesia,[4],242 U
